Experimental data: PubChem BioAssay AID652243 (Drosophila RNAi Screening Center, 2013)

Purpose: 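Fly regulators of androgen-dependent reporter output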 (primary screen)
Cell system: Drosophila S2R+ cells
Reagent: long dsRNA against Drosophila genes
Time to read-out: 72 h (48 h, then 24 h hormone)
Treatment: synthetic androgen R1881 at 10 nM for 24 h
Measured: 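Firefly light from an androgen-responsive reporter and Renilla control light per well, raw and unnormalised, for each of two replicates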
Direction: firefly reporter light: higher = more light from androgen-responsive reporter; Renilla control light: higher = more constitutive control signal (cell number, transfection)
Hit rule: 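Hit when the log firefly-to-Renilla ratio dropped or increased by a fixed fold versus the mean of GFP or LacZ controls across duplicate plates; lowering cut given as 1.5 and as 3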
Calls: active = hit: reporter lowered or raised; inactive = no hit
The deposit covers about 24,000 reagents; below is an unselected part of those with a known target gene and a result. In the full data, 246 (1%) were called active. 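Plates not normalised; calls are printed but the firefly/Renilla ratio behind them is not deposited; fold cut for lowering reported inconsistently.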 Raw values vary from plate to plate and are shown uncorrected. The numbers tell different reagents against one gene apart. A plus sign joins genes that one reagent is predicted to hit. No sequences are given here. The record does not give: the amount of reagent.

target	reagent	firefly reporter light, replicate 1	firefly reporter light, replicate 2	Renilla control light, replicate 1	Renilla control light, replicate 2	call
Osi12	1	1.17e5	96811	1.87e6	1.91e6	inactive
TM9SF2	1	9.09e5	8.58e5	1.53e6	1.50e6	inactive
GC	1	84041	81056	6.18e5	5.61e5	inactive
GC	2	3.16e5	2.13e5	7.58e5	5.46e5	inactive
TpnC4	1	2.59e5	3.15e5	1.70e6	1.18e6	inactive
eyg	1	1.04e6	1.56e6	2.13e6	2.32e6	inactive
eyg	2	3.26e5	2.39e5	5.38e5	4.86e5	inactive
Camta	1	1.29e6	4.23e5	1.71e6	9.12e5	inactive
Camta	2	6.80e5	6.71e5	1.22e6	1.50e6	inactive
Camta	3	7.09e5	7.37e5	9.09e5	1.20e6	inactive
Camta	4	1.41e5	1.38e5	5.32e5	6.37e5	inactive
Camta	5	4.68e5	3.41e5	1.85e6	1.66e6	inactive
CG42382	1	2.36e5	1.34e5	1.58e6	9.63e5	inactive
Ir75c	1	2.63e5	1.54e5	2.24e6	1.68e6	inactive
sxc	1	2.65e5	2.99e5	2.34e6	1.92e6	inactive
SF1	1	1.38e5	1.23e5	2.29e6	2.19e6	inactive
CG11986	1	37526	69297	3.27e5	3.54e5	inactive
CG11986	2	9.02e5	1.04e6	1.03e6	1.12e6	inactive
Drice	1	80360	97019	1.01e6	8.63e5	inactive
Drice	2	2.07e5	2.06e5	5.14e5	8.04e5	inactive
CG30026	1	1.04e5	1.26e5	4.00e5	3.38e5	inactive
CG30026	2	7.25e5	8.77e5	1.20e6	1.20e6	inactive
MED4	1	5.67e5	4.08e5	1.23e6	1.10e6	inactive
MED4	2	2.16e5	2.07e5	5.55e5	4.05e5	inactive
Cpr49Ad	1	3.07e5	2.16e5	2.59e6	1.56e6	inactive
CR42722 + CR42723 + mRpS5 + 1 more	1	9.99e5	9.04e5	2.69e6	2.28e6	inactive
CG5946 + CG11597	1					inactive
Elba3	1	8.00e5	7.88e5	1.82e6	2.32e6	inactive
CG43795 + SkpF	1	2.61e5	2.06e5	1.86e6	1.36e6	inactive
arx	1	28221	23575	4.77e5	3.22e5	inactive
CG32563	1	4.26e5	2.58e5	3.43e6	1.81e6	inactive
CG32563	2	4.34e5	4.68e5	8.72e5	1.59e6	inactive
ninaA	1	7.38e5	7.67e5	2.50e6	2.16e6	inactive
Cep164	1	4.96e5	2.91e5	3.81e6	2.76e6	inactive
Adk2	1	7.20e5	8.74e5	1.23e6	1.47e6	inactive
Adk2	2					inactive
CG8195	1	1.10e6	1.04e6	2.46e6	2.31e6	inactive
Unc-115a	1	1.20e5	1.22e5	3.08e5	2.24e5	inactive
Unc-115a	2	7.14e5	1.32e6	8.18e5	9.40e5	inactive
CG4367	1	2.29e5	2.14e5	2.68e6	3.09e6	inactive

3 neighbouring entries from above:
target	reagent	firefly reporter light, replicate 1	firefly reporter light, replicate 2	Renilla control light, replicate 1	Renilla control light, replicate 2	call
Adk2	1	7.20e5	8.74e5	1.23e6	1.47e6	inactive
Adk2	2					inactive
CG8195	1	1.10e6	1.04e6	2.46e6	2.31e6	inactive
